Results published in paper PMC10033409, “Autoregulation of GPCR signalling through the third intracellular loop” (Nature, 2023).
These are yes or no findings as the source states them, for the method shown. Binding seen in cells or lysates may run through a third protein. Some entries that bind do so weakly or less than the wild type.

Molecular target: T1, Bio-Qpep, N-terminally biotinylated Gq peptide
T1 sequence (peptide, N-terminal biotin): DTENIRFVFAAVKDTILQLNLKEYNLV
Assay: pull-down; β2AR–mCerulean in membranes with 100 µM isoproterenol and 10 µM N-terminally biotinylated Gq peptide, 30 min on ice; streptavidin-coated magnetic beads; percent mCerulean depleted from the supernatant; only the target purified

| binding | Substance |
| --- | --- |
| binds | β2AR(∆ICL3)–mCerulean (∆236–257) (from UniProt P07550 1-413) (receptor) |
| binds weakly | β2AR–mCerulean, wild type (from UniProt P07550 1-413) (receptor) |
